Experimental data from PubChem BioAssay AID2551 (National Center for Advancing Translational Sciences (NCATS), 2010).
In all, about 310,000 compounds went through this assay and about 17,000 (5.5%) were called active. The inconclusive results got no clear call from the source; some entries with a clear call stand among them for comparison. Calls follow the shape of the dose curve; as a rule, active = well fitted inhibition curve with a large enough effect; inconclusive = small, poorly fitted or top-dose-only effect, or effect the other way; inactive = no such curve, though single readings can be large or run the other way. A potency beside an inconclusive call is a rough fit, not a confirmed value.

Chains of the proteins cited; added tags and fusions are not shown. Lines headed by an entry give the natural chain unless they say otherwise; changes in a name come on top.
UniProt P51450: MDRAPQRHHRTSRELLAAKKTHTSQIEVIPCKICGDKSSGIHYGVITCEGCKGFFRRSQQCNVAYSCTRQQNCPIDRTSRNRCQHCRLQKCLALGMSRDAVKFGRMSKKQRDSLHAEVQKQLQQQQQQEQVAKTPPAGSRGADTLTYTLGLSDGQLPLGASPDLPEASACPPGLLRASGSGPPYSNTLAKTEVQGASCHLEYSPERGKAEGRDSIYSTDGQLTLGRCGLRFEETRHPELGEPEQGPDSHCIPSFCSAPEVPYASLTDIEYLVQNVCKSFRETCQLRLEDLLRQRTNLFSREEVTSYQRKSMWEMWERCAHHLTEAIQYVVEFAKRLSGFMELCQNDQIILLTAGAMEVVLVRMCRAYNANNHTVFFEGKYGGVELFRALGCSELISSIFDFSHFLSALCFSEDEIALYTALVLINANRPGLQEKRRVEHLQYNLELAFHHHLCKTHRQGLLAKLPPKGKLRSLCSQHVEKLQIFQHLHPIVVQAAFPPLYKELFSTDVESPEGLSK

Molecular target: Nuclear receptor ROR-gamma (Mus musculus) (UniProt P51450)
Assay: qHTS for inhibitors of ROR gamma transcriptional activity; also: nearly all actives have a fitted effect of over 60% in size
Conditions: Drosophila S2 Gal4-RORgamma UAS-luciferase reporter, 20 h; series mostly up to 53.6 µM
How it was run: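 Stable Schneider cell line, Gal4 DNA-binding domain fused to ROR gamma, UAS-luciferase. Cmpd 1 hr RT → CuSO4 700 uM final → 20 hr RT → luciferase reagent 10 min → luminescence.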
Potency is read from the fitted curve at half-maximal effect.

Structure (SMILES)	Potency
COc1ccc(OC)c(S(=O)(=O)Nc2cc3c(cc2N2CCCC2)n(C)c(=O)c(=O)n3C)c1	inactive
CS(=O)(=O)c1ccc(C(=O)Nc2ccc(N3CCCC3)cc2)c(Cl)c1	inconclusive: 6.31 µM [inhibitor, single point]
CCOC(=O)C1(Cc2cccc(OC)c2)CCN(Cc2cccc3c2OCO3)CC1	inactive
COc1cccc(/C=C/C(=O)OCC(=O)NCc2ccco2)c1OC	inactive
C=CC[n+]1c(-c2ccc(C)cc2)csc1NNC(=O)Nc1ccccc1	active: 14.1 µM
O=C(NCC(c1cccs1)N1CCOCC1)c1ccccc1NS(=O)(=O)c1cccc([N+](=O)[O-])c1 (centres undefined)	inconclusive: 35.5 µM [activator, single point]
CC1CCCN(c2ccc(C(=O)NCc3ccco3)cc2[N+](=O)[O-])C1 (centres undefined)	inconclusive: 7.94 µM [activator, partial curve]
CCN/N=C(\Cc1nc2ccccc2[nH]1)c1ccccc1	inconclusive: 35.5 µM [inhibitor, single point]
COC(=O)c1sccc1NC(=O)Nc1ccccc1Cl	inactive
Cc1cccc(NC(=S)N(C)Cc2cn(C)c3ccccc23)c1	inconclusive: 1.41 µM [inhibitor, single point]
S=C(Nc1ccc(Br)cc1)N1CCCC1	inconclusive: 20 µM [inhibitor, single point]
Cc1cc(C)c2oc(=O)cc(CN3CCN(Cc4ccc5c(c4)OCO5)CC3)c2c1	inconclusive: 1.26 µM [inhibitor, single point]
COc1cccc(C2=Nn3c(nnc3-c3ccccc3C)SC2)c1	inconclusive: 28.2 µM [inhibitor, single point]
O=C(Cc1cccs1)NCCSc1c(-c2ccc(Cl)cc2)[nH]c2ccccc12	inconclusive: 12.6 µM [activator, partial curve]
O=C(NNC(=O)C12CC3CC(CC(C3)C1)C2)c1cnccn1	inconclusive: 1.12 µM [inhibitor, single point]
CCc1ccc(OCCCC(=O)Nc2nnc(C3CCCO3)s2)cc1 (centres undefined)	inactive
COCCn1c(SCC(=O)Nc2ccccc2F)nc2c([nH]c3ccccc32)c1=O	inconclusive: 22.4 µM [inhibitor, partial curve, poor fit]
COc1ccc(S(=O)(=O)Nc2ccc3c(c2)n(C)c(=O)n3C)cc1C	inconclusive: 15.8 µM [activator, single point]
CCn1c(C)cc(C)c(C#N)c1=O	inactive
CC1(C)CC(=O)C2=C(C1)NC(SCC(=O)Nc1ccccc1)=C(C#N)C21CCCCC1	inactive
COCc1cc(C)[nH]c(=O)c1C(=O)NC12CC3CC(CC(C3)C1)C2	inconclusive: 35.5 µM [inhibitor, single point]
Cc1nonc1CN(C)C(=O)c1cc(COc2ccc(F)cc2Cl)on1	inconclusive: 14.1 µM [activator, partial curve, poor fit]
O=C(COc1cccc(NC(=O)c2ccco2)c1)c1ccc(F)cc1	inconclusive: 12.6 µM [activator, single point]
CC1=NNC(=O)/C1=C\c1cn(-c2ccccc2)nc1-c1ccccc1	active: 1.12 µM
Cc1nn(-c2ccccc2)c(N2CCCC2)c1/C=N/NC(=O)c1ccccc1O	active: 10 µM

Structure (SMILES)	Potency
COc1ccc(C(=O)NCCc2nnc3ccc(SCC(=O)NCc4ccccc4)nn23)cc1	inactive
CCCCNC(=S)NC(=O)c1ccccc1Br	active: 7.94 µM
c1ccc2c(COn3nnc4ccccc43)cccc2c1	inconclusive: 0.708 µM [activator, full curve, poor fit]
COc1ccc(-c2noc(CN(C(=O)c3ccc4c(c3)OCO4)C(C)C)n2)cc1	inactive
Cc1cc(NC(=O)Nc2ccc(Cl)c(Cl)c2)n(-c2ccccc2)n1	inactive
O=C(c1ccc(Cn2c(=O)[nH]c3ccsc3c2=O)cc1)N1CCN(c2ccccc2)CC1	inconclusive: 35.5 µM [activator, single point]
O=[N+]([O-])c1cccc(/C=N/N2CCN(c3ccccn3)CC2)c1	inconclusive: 3.55 µM [activator, single point]
CCOc1ccccc1N(C(=O)c1ccccc1Cl)C1=NC(C)(C)CS1	active: 17.8 µM
CC(C)(C)C(=O)Nc1ccccc1C(=O)OCC(=O)c1ccc2c(c1)OCCO2	inconclusive: 8.91 µM [activator, partial curve]
O=C(N/N=C/c1cccs1)C1COc2ccccc2O1 (centres undefined)	inconclusive: 15.8 µM [inhibitor, single point]
Cc1sc(NC(=O)c2cccs2)nc1-c1ccccc1	inconclusive: 25.1 µM [inhibitor, single point]
CCN1CCC(C(N)=O)CC1	inactive
COc1ccc(/C=C/c2nc(N)nc(-c3ccccc3O)n2)cc1OC	inconclusive: 12.6 µM [activator, single point]
CCC(O)(CC)C(=O)NN(C(=O)CCl)c1ccccc1	inactive
CCOC(=O)c1c(N)c(C#N)c2n1CCCC2	inconclusive: 0.112 µM [activator, full curve, poor fit]
CCOC(=O)C1CCCN(C(=S)Nc2cccc(Cl)c2C)C1 (centres undefined)	inconclusive: 35.5 µM [inhibitor, single point]
CC(C)CC(=O)Nc1ccc(Cc2ccncc2)cc1	inactive
S=c1[nH]nc(CCc2ccccc2)n1-c1ccc(Cl)cc1	active: 1.78 µM
CCc1ccccc1NC(=S)N(Cc1ccco1)C(C)c1cccs1 (centres undefined)	active: 11.2 µM
CCn1c(CNC(=O)c2cccs2)nnc1SCC(=O)Nc1ccc(Cl)cc1	inconclusive: 7.08 µM [activator, partial curve, poor fit]
O=C(O)CSc1nnc(-c2ccc3c(c2)OCO3)o1	inconclusive: 11.2 µM [inhibitor, partial curve]
COC(=O)N/N=C/c1cn(CCOc2ccccc2OC)c2ccccc12	inactive
CCCn1c(C)cc(C(=O)CSc2nc3ccccc3c(=O)n2Cc2ccco2)c1C	inconclusive: 0.562 µM [activator, partial curve]
Cc1ccccc1OCC(O)Cn1c(=N)n(CCN2CCOCC2)c2ccccc21 (centres undefined)	inactive
CCOC(=O)c1sc(Nc2ccc(C)cc2C)nc1C	inactive

Structure (SMILES)	Potency
CCOC(=O)C(=CNc1ccc(S(N)(=O)=O)cc1)C(=O)OCC	inactive
Cc1onc(-c2cccc(Cl)c2Cl)c1C(=O)O/N=C(\N)c1ccc([N+](=O)[O-])o1	inactive
O=C(N/N=C1/CC2C=CCC12)c1ccc(Br)o1 (centres undefined)	inconclusive: 35.5 µM [inhibitor, single point]
O=C(CC1C(=O)N(c2ccccc2)C(=S)N1c1ccccc1)c1ccccc1 (centres undefined)	inconclusive: 5.62 µM [activator, full curve]
CCOc1ccccc1N(C(=O)Cn1nnnc1-c1ccc(C)o1)C(CC)C(=O)NC(C)(C)C (centres undefined)	inconclusive: 25.1 µM [activator, single point]
CCOc1cc(OCC)cc(C(=O)NCc2ccco2)c1	inactive
CCS(=O)(=O)N1Cc2ccccc2CC1C(=O)Nc1nc2ccccc2[nH]1 (centres undefined)	inconclusive: 17.8 µM [inhibitor, single point]
COc1ccccc1-c1cc(C(F)(F)F)nc(S(=O)(=O)CCCC(=O)Nc2cccnc2Cl)n1	active: 3.98 µM
Cc1ccccc1C(=O)/C=C1\NC(=O)CS1	inconclusive: 35.5 µM [activator, single point]
COc1ccc(CC(=O)N/N=C/C=C/c2ccc3c(c2)OCO3)cc1OC	inactive
COC(=O)c1ccc(C(=O)OC)c(NC(=O)N2c3ccccc3Sc3ccccc32)c1	inconclusive: 7.94 µM [activator, partial curve, poor fit]
CCOc1cnn(-c2cc(Oc3ccc(C)cc3)ncn2)c(=O)c1Cl	inactive
CCOc1ccc(NC(=O)CN(C)CC(=O)NC2CCCc3ccccc32)cc1OCC (centres undefined)	inconclusive: 0.251 µM [activator, full curve, poor fit]
Cn1cccc1/C=N/N1CCN(Cc2ccc(Cl)cc2)CC1	inconclusive: 11.2 µM [activator, partial curve]
O=C(Nc1cc(-c2ccccc2)sc1C(=O)O)c1cccc(F)c1	inconclusive: 12.6 µM [activator, single point]
O=C(CNC(=O)c1ccc(F)cc1)c1ccccc1	inconclusive: 22.4 µM [inhibitor, single point]
C/C(=N\Nc1nnc(-c2ccccc2)c(-c2ccccc2)n1)c1cccc([N+](=O)[O-])c1	inactive
CCC(C(=O)NC(C)(C)C)N(C(=O)c1ccc(Cl)nc1)C1CCCC1 (centres undefined)	inactive
S=C1N(c2ccccc2)C(c2ccc(Cl)cc2)N2CCCN12 (centres undefined)	inconclusive: 17.8 µM [inhibitor, single point]
O=C(NC1CC2CCCC(C1)N2C(=O)N1CCCCC1)C1CCCCC1 (centres undefined)	inconclusive: 35.5 µM [inhibitor, single point]
COc1ccc2[nH]c3c(Cl)ncnc3c2c1	inconclusive: 14.1 µM [activator, partial curve, poor fit]
Clc1ccc(C2=CC(c3ccco3)n3ncnc3N2)cc1 (centres undefined)	inconclusive: 14.1 µM [inhibitor, single point]
COc1ccc(NC(=S)NC(NC(=O)/C=C/c2ccccc2)C(Cl)(Cl)Cl)cc1 (centres undefined)	inconclusive: 15.8 µM [inhibitor, single point]
Cc1ccc(C2C(C(=O)c3cc4ccccc4o3)=C(O)C(=O)N2c2cc(C)on2)cc1 (centres undefined)	inconclusive: 35.5 µM [inhibitor, single point]

Looked up one by one from the list above:
Structure (SMILES)	Potency
O=C(Nc1cc(-c2ccccc2)sc1C(=O)O)c1cccc(F)c1	inconclusive: 12.6 µM [activator, single point]
CCOC(=O)c1c(N)c(C#N)c2n1CCCC2	inconclusive: 0.112 µM [activator, full curve, poor fit]
CS(=O)(=O)c1ccc(C(=O)Nc2ccc(N3CCCC3)cc2)c(Cl)c1	inconclusive: 6.31 µM [inhibitor, single point]
C/C(=N\Nc1nnc(-c2ccccc2)c(-c2ccccc2)n1)c1cccc([N+](=O)[O-])c1	inactive
O=C(COc1cccc(NC(=O)c2ccco2)c1)c1ccc(F)cc1	inconclusive: 12.6 µM [activator, single point]
